# Results: PubChem BioAssay AID977622 (Broad Institute, 2014)
# Some of the results follow. Shown are side measurements of this screen, not its main read-out; they come without a call.
# Experiments:
# [1] = growth inhibition of wild-type GFP E. coli, dose response, h38 mutant RFP, cherry-pick (AID 977622); conditions: E. coli mixed culture, 24 h, total growth OD600 at 50 uM
# [2] = test system: E. coli h38 humanized mutant ribosome RFP fluorescence, mixed culture, 24 h; test: as above; conditions: h38 mutant RFP at 50 uM
SMILES,activity change [1],activity change [2]
CCCN(CC(=O)Nc1ccccc1C)C(=O)c1cccc(S(=O)(=O)N2CCc3ccccc3C2)c1,-44.1%,-1.68%
COc1ccc(CC(=O)Oc2ccc(C)cc2C)cc1,-42.1%,-18.5%
CCOc1ccc(N(CC(=O)NC(C(C)C)C(C)C)S(=O)(=O)c2ccc(OC)c(OC)c2)cc1,-47.8%,-32.8%
Cc1ccc(S(=O)(=O)N2CC[C@H]3[C@H](CO)Nc4ccc(Br)cc4[C@H]32)cc1,-65.4%,-2.04%
O=C(C[n+]1cc(-c2ccc(Cl)c(Cl)c2)n2c1CCC2)OCc1ccccc1,-6.69%,9.12%
C=CCN(c1ccccc1)S(=O)(=O)c1cccc2cccnc12,-30.7%,-16.6%
Cc1cc(C(=O)Nc2cccc3c2O[C@H](CN(C)S(=O)(=O)c2ccc(Cl)cc2)[C@H](C)CN([C@@H](C)CO)C3=O)n(C)n1,–,-16.8%
Cc1ccc(CSCC(=O)N(C)CC(=O)Nc2ccccc2Cl)cc1,-52.3%,-2.78%
O=C(O)c1cc(-c2ccc(-c3ccc(F)cc3)o2)nc2ccccc12,-82.4%,-44.3%
c1ccc(CN2CCN(C3CCCSc4ccccc43)CC2)cc1 (stereo not drawn),-39.3%,–
COc1cccc(NC(=O)COC(=O)Cc2ccc(Cl)cc2)c1,-23.8%,14.2%
Cc1noc(C)c1NC(=O)Nc1ccc2c(c1)C(=O)N([C@H](C)CO)C[C@@H](C)[C@H](CN(C)C(=O)Nc1ccc3c(c1)OCO3)OCCCC[C@@H](C)O2,-17.1%,9.01%
COc1ccccc1Cn1c(=S)[nH]c2ccccc2c1=O,-59.8%,31.8%
CS(=O)(=O)c1ccc(Cl)c(NC(=O)CSc2nncn2-c2ccccc2)c1,-11.3%,-19.8%
Cc1ccsc1C(=O)C1CCCN(Cc2cc(F)ccc2-n2cccn2)C1 (stereo not drawn),-16%,-21.7%
Clc1ccc2nc(CN3CCCc4ccccc43)cn2c1,-42.2%,-22.6%
O=C(CSc1nc2ccccc2[nH]1)Nc1ccccc1F,-46.4%,-4.15%
Cc1cc(C)cc(NC(=O)COC(=O)CC2CCCC2)c1,0.956%,35.4%
Cc1cccc(Nc2nc(-c3ccc(F)cc3)cs2)n1,-21.3%,-17.1%
COc1ccc(-c2noc(=O)n2Cc2ccccc2Cl)cc1,-18.2%,5.85%
Cc1cc(C(=O)Nc2cccc3c2O[C@H](CN(C)S(=O)(=O)c2ccc(Cl)cc2)[C@H](C)CN([C@H](C)CO)C3=O)n(C)n1,-57.8%,-37.8%
COc1ccccc1NS(=O)(=O)c1cc(C(=O)Nc2ccc(S(=O)(=O)Nc3onc(C)c3C)cc2)ccc1C,-38.7%,-45.6%

SMILES,activity change [1],activity change [2]
NCCNC(=O)c1c(NC(=O)c2ccccc2)sc2c1CCCC2,-34.1%,-31.7%
COc1ccccc1C1CCN(Cc2cccc([N+](=O)[O-])c2)CC1,-9.75%,31.5%
Cc1ccc(S(=O)(=O)NC(C)C(=O)NCc2ccc(Cl)cc2)cc1 (stereo not drawn),-9.75%,16.3%
O=C(CN1CCCC1)Nc1ccccc1Sc1ccc(Cl)cc1,-68.3%,29.3%
Cc1cccc(C(=O)NCC(=O)NCCSc2ccc(Br)cc2)c1,-8.35%,–
CCC[N+]1(CC#CC(O)(c2ccccc2)C2CCCCC2)CCCCC1 (stereo not drawn),-10.7%,-12.9%
C[n+]1ccccc1/C=C/c1cc(Br)ccc1O,-10.6%,32%
O=C(NCc1ccccc1)c1ccc(-c2ccccc2F)o1,-69.1%,–
COc1ccc(NC(=O)CSc2n[nH]c(-c3ccncc3)n2)c([N+](=O)[O-])c1,-6.62%,17.5%
CC1CCCC(NC(=O)COC(=O)[C@@H]2CC(O)CN2S(=O)(=O)c2ccc3c(c2)OCCO3)C1C (stereo partly drawn),-3.56%,–
O=C(C[C@H]1CC[C@@H]2[C@H](COC[C@@H](O)CN2C(=O)Nc2cc(Cl)cc(Cl)c2)O1)N1CCOCC1,-31%,-12%
Cc1ccc(C#N)c(SCc2ccccc2F)n1,-74.7%,-1.16%
CC1CCCN(C(=O)C(C)Nc2cc(Cl)ccc2N2CCOCC2)C1 (stereo not drawn),-40.1%,-13.6%
O=C(NCc1ccc(-c2nc3ccccc3s2)cc1)c1ccco1,-37.2%,26.5%
COc1ccccc1CNC(=O)CN1C(=O)NC(c2ccccc2)(c2ccccc2)C1=O,-36.6%,-5.29%
CCOc1ccccc1OCCCC(=O)N1CCN(S(=O)(=O)c2cc(F)ccc2F)CC1,-33.8%,-20.6%
O=C(NCc1ccccc1Cl)c1ccc2c(c1)SC1=NS(=O)(=O)CCN12,-8.88%,-27.3%
O=c1[nH]c(C2CCN(S(=O)(=O)c3ccc4c(c3)OCCO4)CC2)nc2c1nnn2Cc1ccccc1F,-46.7%,-25.6%
COc1cc(NC(=O)c2ccc([N+](=O)[O-])o2)ccc1NC(=O)c1ccco1,-37.8%,-37.8%
COC(=O)c1ccc2nc(-c3ccc(F)cc3)c(Cc3cccc(F)c3)n2c1,-6.52%,–
CCc1nc2ccccc2c(C(=O)OCC(=O)NC(=O)c2cccn2C)c1C,-2.77%,–
Cc1ccc(NC(=O)c2ccccc2F)c(NC(=O)c2ccccc2F)c1,-31.7%,-4.02%

SMILES,activity change [1],activity change [2]
CNC(=O)c1ccsc1NC(=O)c1ccc(S(=O)(=O)N2CCc3ccccc32)cc1,-31.4%,–
CCOc1ccc2nc(SCC(=O)Nc3nonc3C)[nH]c2c1,-13.9%,–
COc1ccc(NC(=O)Nc2cccc3c2O[C@@H](CN(C)S(=O)(=O)c2ccc(Cl)cc2)[C@H](C)CN([C@H](C)CO)C3=O)cc1,-44.1%,5.12%
COc1ccc(OC)c(NC(=O)CN(C)CC(=O)Nc2ccccc2Br)c1,-31.5%,-20.9%
O=C(c1ccccc1)C1CN(Cc2ccccc2)CCC1(O)c1ccccc1 (stereo not drawn),-26.7%,16.3%
COc1ccc(NC(=O)Nc2cccc3c2O[C@H](CN(C)S(=O)(=O)c2ccc(Cl)cc2)[C@H](C)CN([C@@H](C)CO)C3=O)cc1,-82.1%,-32.2%
COc1ccc(OC)c(S(=O)(=O)Nc2cccc3ccc(O)cc23)c1,-32.6%,-27%
CC(C)(C)C1CCC(OCC(O)CN2CCN(c3ccccn3)CC2)CC1 (stereo not drawn),-50.7%,–
Cc1cc(SCC(=O)c2cccs2)n2nc(C)c(-c3ccc(Cl)cc3)c2n1,-2.12%,-7.39%
CCOC(=O)Cc1nnc(NC(=O)CSc2nc3ccccc3[nH]2)s1,-14.9%,-1.54%
O=C(NC1CCCC(C(F)(F)F)C1)c1ccc([N+](=O)[O-])o1 (stereo not drawn),-20.8%,-35.6%
O=C(Nc1ccc(C(=O)N2CCOCC2)cc1)C1CCCC1,5.41%,24.3%
C[C@H](CO)N1C[C@H](C)[C@@H](CN(C)Cc2cccc(F)c2)Oc2ncc(C#CCc3ccccc3)cc2C1=O,-92.5%,75.7%
Cc1cccc(-c2ccc([C@@H]3[C@@H](CO)N4CCCCN(S(=O)(=O)c5cccs5)C[C@H]34)cc2)c1,-73.5%,-32.8%
Cc1ccc(NC(=O)c2ccc(NCCCN3CCC(C)CC3)c([N+](=O)[O-])c2)cc1F,0.422%,-19.7%
COc1cccc(OCCNS(=O)(=O)c2ccccc2[N+](=O)[O-])c1,-5.42%,-16.5%
CCN(c1ccccc1)S(=O)(=O)c1ccc(OC)c(OC)c1,-28.9%,-13.4%
CN(c1ccccc1)S(=O)(=O)c1cccc(NC(=O)CCN2C(=O)C3CCCCC3C2=O)c1 (stereo not drawn),-44.3%,-12.2%
O=C(CSc1nc2ccccc2[nH]1)Nc1cccc(S(=O)(=O)N2CCOCC2)c1,-60.3%,57.2%
Cc1onc(-c2ccccc2Cl)c1C(=O)OCC(=O)c1ccccc1,-23.7%,-11.5%
CCOC(=O)C(C)(C)n1nnc(-c2ccc([N+](=O)[O-])cc2)n1,-1.47%,2.57%
Cc1cccc(NS(=O)(=O)c2cc3c(cc2C)NC(=O)CO3)c1,-4.81%,-9.68%

SMILES,activity change [1],activity change [2]
COc1ccc(CN(C)C[C@H]2Oc3ccc(NS(=O)(=O)c4ccc(Cl)cc4)cc3CC(=O)N([C@@H](C)CO)C[C@H]2C)cc1,-32.8%,130%
O=C(COC(=O)C1CC2C=CC1C2)NCCc1ccccc1 (stereo not drawn),-9.44%,24.7%
COc1ccc(-n2c(-c3ccc(Cl)cc3)c[n+]3c2CCCCC3)cc1,-68.6%,–
Cc1cc(C(C)(C)C)oc1C(=O)N(CC(=O)NC1CCCC1)c1c(C)cccc1C,-21.6%,3.4%
COc1ccc(-c2csc(NC(=O)c3ccccc3S(C)(=O)=O)n2)cc1,-47.2%,-40%
Cc1noc2ncnc(SCc3ccc(C(F)(F)F)cc3)c12,-30.2%,-19.1%
CN(C)CCCn1c(=O)n(Cc2ccco2)c(=O)c2c3c(sc21)CCCCC3,-19.7%,-4.63%
O=C(COc1ccc(Br)cc1)Nc1ccc(C(=O)Nc2ccccc2C(=O)O)cc1,-16.4%,-20.4%
CCOc1ccc2[nH]c3c(NCCN(C)C)ncnc3c2c1,0.696%,–
COc1ccc(NC(=O)C2CC3C=CC2C3)c([N+](=O)[O-])c1 (stereo not drawn),–,-7.56%
CCn1cc(CCC(=O)NCCc2ccccc2)c2ccccc21,-53%,-3.52%
O=C(Nc1ccccc1)N1C[C@@H]2N[C@H](C1)[C@@H]2c1ccc(/C=C/c2ccccc2)cc1,-97.9%,–
Cc1ccc(C2NC(=O)c3[nH]nc(-c4ccccc4)c32)cc1 (stereo not drawn),-58.5%,-8.2%
Cc1cc([N+](=O)[O-])nn1CC(=O)Nc1cc(F)ccc1F,1.22%,-23.5%
CCCn1c(NCc2ccc3c(c2)OCO3)nc2ccccc21,–,1.53%
C[C@@H]1NS(=O)(=O)c2c(F)cccc2O[C@@H]1c1ccccc1,-38.4%,13%
Cc1ccc2c(c1C)OC(=O)CC2c1ccccc1 (stereo not drawn),-55%,-12.4%
Cc1[nH]c2ccccc2c1C(=O)CSc1nc2ccccc2[nH]1,-35.4%,–
C[C@@H]1CN([C@@H](C)CO)C(=O)CCCn2nncc2CO[C@H]1CN(C)C(=O)Nc1ccc(C(F)(F)F)cc1,-58.3%,-25%
O=C(C[C@@H]1CC[C@H]2[C@@H](COC[C@H](O)CN2C(=O)Nc2cc(Cl)cc(Cl)c2)O1)N1CCOCC1,-17.5%,42.1%
C[C@@H]1CCCCO[C@H](CN(C)C(=O)CCCN(C)C)[C@@H](C)CN([C@H](C)CO)C(=O)c2cc(NC(=O)Nc3cccc4ccccc34)ccc2O1,-6.36%,-9.22%
